Test results taken from US20150038419A1.
These are yes or no findings as the source states them, for the method shown. Some results given as binding are weak or reduced against the parent protein; the word gives no strength. Sequences can lack the tags named with a protein.

By UniProt entry, the sequences of proteins in these tests, tags left out. Residues count along the entry.
UniProt Q15661, residues 31-275: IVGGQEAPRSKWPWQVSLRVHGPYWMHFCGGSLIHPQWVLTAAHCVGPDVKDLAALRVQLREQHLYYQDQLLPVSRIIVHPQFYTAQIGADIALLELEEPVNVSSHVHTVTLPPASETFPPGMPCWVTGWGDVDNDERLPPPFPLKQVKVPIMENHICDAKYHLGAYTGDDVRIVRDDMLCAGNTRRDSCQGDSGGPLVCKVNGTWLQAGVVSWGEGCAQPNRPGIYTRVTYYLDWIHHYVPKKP
UniProt P03952, residues 20-638: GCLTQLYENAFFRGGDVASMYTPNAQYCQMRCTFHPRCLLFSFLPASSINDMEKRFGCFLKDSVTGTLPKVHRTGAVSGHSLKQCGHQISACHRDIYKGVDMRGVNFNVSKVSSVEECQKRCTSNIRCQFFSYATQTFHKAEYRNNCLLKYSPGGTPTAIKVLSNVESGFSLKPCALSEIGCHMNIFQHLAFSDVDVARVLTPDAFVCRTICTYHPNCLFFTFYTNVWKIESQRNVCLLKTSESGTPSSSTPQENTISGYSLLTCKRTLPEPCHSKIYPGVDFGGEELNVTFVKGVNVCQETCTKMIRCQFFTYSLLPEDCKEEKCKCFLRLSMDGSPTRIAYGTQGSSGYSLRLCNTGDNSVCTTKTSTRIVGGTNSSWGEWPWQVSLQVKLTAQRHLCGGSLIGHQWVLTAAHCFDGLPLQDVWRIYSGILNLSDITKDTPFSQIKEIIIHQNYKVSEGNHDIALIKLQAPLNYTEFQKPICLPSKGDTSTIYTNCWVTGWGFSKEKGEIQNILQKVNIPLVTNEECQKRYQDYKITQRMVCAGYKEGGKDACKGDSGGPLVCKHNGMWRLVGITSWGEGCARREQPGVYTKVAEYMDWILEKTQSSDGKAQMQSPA

Legend:
[1] = target: skin β-tryptase (human) (human) (UniProt Q15661); assay: enzyme inhibition titration, fluorogenic peptide substrate 250 µM, 0.01 nM enzyme
[2] = target: skin β-tryptase (human) (human) (UniProt Q15661); assay: enzyme inhibition assay, fluorogenic peptide substrate, 500 nM rSimukunin, 0.01 nM enzyme
[3] = target: kallikrein (human) (human) (UniProt P03952); assay: enzyme inhibition titration, fluorogenic peptide substrate 250 µM, 0.08 nM enzyme
[4] = target: kallikrein (human) (human) (UniProt P03952); assay: enzyme inhibition assay, fluorogenic peptide substrate, 500 nM rSimukunin, 0.08 nM enzyme

Measured: binding

B1: recombinant Simukunin (rSV-66), Simulium vittatum SV-66 without signal peptide, His-tagged, expressed in E. coli (protein, not shown: small tags and cut ends)
chain: QENVCNLPVDEGVCRALFKRFYYEPATDSCKEFYYGGCEGNGNRFKSKKECILKCQKNKQLIKTRKRKPKKTTKPPIPIISLD
binds: [1] | [2] | [3] | [4]
